Data from patent US20120116084A1, “N-TYPE ORGANIC SEMICONDUCTORS INCLUDING AT LEAST TWO 2-DICYANOMETHYLENE-3-CYANO-2,5-DIHYDROFURAN GROUPS” (COMMISARIAT A L'ENERGIE ATOMIQUE ET AUX ENE ALT, priority 2009, published 2012).

Assay: Electrical characterization in air of field-effect transistors made with the molecules (bottom-gate bottom-contact geometry)
Settings: field-effect transistor of Example 6, bottom-gate bottom-contact
Procedure: Various field-effect transistors were manufactured and especially, by way of example, in the following manner (bottom-gate bottom-contact geometry): • sonication of a chip (1 cm×1 cm) comprising transistors bearing linear or interdigitated units (channel width W of 1000 to 10 000 pm and channel length L of 2 to 200 μm) in acetone for 3 minutes followed by rinsing with isopropanol and drying with argon, • UV/ozone treatment for 45 minutes, • formation of a self-assembled layer in the channels by dipping the chip in a solution of octyltrichlorosilane in toluene (10^−3 M) for 4 hours at 80° C., • deposition of the n-type semiconductor via one of the methods mentioned previously, • release of the electrodes from the transistors by means of an organic solvent belonging to the list presented in the description of the invention, • annealing at 100° C. for 20 minutes, • establishment of the electrical contacts and especially of the bottom-gate electrode, • annealing at 100° C. for 5 minutes.
The field-effect transistors obtained in Example 6 were tested.
Their mobility and Ion/Ioff ratio values, determined by electrical characterization in air, are as follows: • n-type semiconductor of Example 1: 3×10^−5 cm^2. V^−1. s^−1 and 2×10^2, • n-type semiconductor of Example 2: 3×10^−4 cm^2. V^−1. s^−1 and 3×10^3, • n-type semiconductor of Example 3: 1×10^−4 cm^2. V^−1. s^−1 and 8×10^2, • n-type semiconductor of Example 4: 6×10^−3 cm^2. V^−1. s^−1 and 8×10^4, • n-type semiconductor of Example 5: 8×10^−4 cm^2. V^−1. s^−1 and 9×10^2,

Compound | Ion/Ioff ratio | mobility
CC1(C)OC(=C(C#N)C#N)C(C#N)=C1/C=C/c1ccc(/C(C#N)=C/c2sc(-c3cc(C#N)c(/C=C(\C#N)c4ccc(/C=C/C5=C(C#N)C(=C(C#N)C#N)OC5(C)C)s4)s3)cc2C#N)s1 [Example 5] | 9×10^2 | 8×10^−4 cm^2. V^−1. s^−1
CC1(C)OC(=C(C#N)C#N)C(C#N)=C1/C=C/c1ccc(-c2c3ccccc3c(-c3ccc(/C=C/C4=C(C#N)C(=C(C#N)C#N)OC4(C)C)cc3)c3ccccc23)cc1 [Example 2] | 3×10^3 | 3×10^−4 cm^2. V^−1. s^−1
CC1(C)OC(=C(C#N)C#N)C(C#N)=C1/C=C/c1ccc(/C=C/C2=C(C#N)C(=C(C#N)C#N)OC2(C)C)cc1 [Example 1] | 2×10^2 | 3×10^−5 cm^2. V^−1. s^−1
CC1(C)OC(=C(C#N)C#N)C(C#N)=C1/C=C/c1ccc(/C=C/C2=C(C#N)C(=C(C#N)C#N)OC2(C)C)c([N+](=O)[O-])c1 [Example 3] | 8×10^2 | 1×10^−4 cm^2. V^−1. s^−1
